# Data taken from PubChem BioAssay (Tox21).
# Inconclusive results, whose numbers are uncertain, are shown with a selection of clear calls. Potencies beside an inconclusive call are fits to weak or partial responses and may not hold up. Activity calls are given as the source filed them. Calls come from the whole dose curve. Residues, ends and D or L forms follow the SMILES beside them.
# Assay: p53 small molecule agonists, cell-based qHTS assay with human liver microsomes (AID 1963577);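 for activation: p53 response element beta-lactamase reporter cells with liver microsomes plus NADPH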
# Conditions: HCT-116 p53RE-bla with human liver microsomes, ratio, 16 h; activation: at 66 µM (top of the series) unless noted
# Source text: National Center for Advancing Translational Sciences [NCATS]
# Division of Preclinical Innovation [DPI]
# U.S. Environmental Protection Agency [EPA]
# National Institutes of Environmental Health Sciences [NIEHS]
# National Toxicology Program [NTP]
# U.S. Food and Drug Administration [FDA]
# p53, a tumor suppressor protein, is activated following cellular insult, including DNA damage and other cellular stresses. The activation of p53 regulates cell fate by inducing DNA repair, cell cycle arrest, apoptosis, or cellular senescence. The activation of p53, therefore, is a good indicator of DNA damage and other cellular stresses. […] The activation of the reporter gene under culture conditions can be detected by fluorescence intensity.
# Tox21 Assay Protocol Summary:
# The p53RE-bla cells were dispensed at 4,000cells/3ul/well in 1536-well black-clear bottom plates. After the assay plates were incubated at 37 C, 5% CO2 incubator for 5 hours, 23 nL of compounds dissolved in DMSO, positive controls or DMSO only was transferred to the assay plate. Following compound addition, 3 uL of human liver microsomes (XenoTech, Kansas City, KS) at final concentration of 0.5 mg/mL and 1uL of Beta-Nicotinamide adenine dinucleotide 2-phosphate (NADPH) at final concentration of 0.5 mg/mL were transferred to the assay plate. The plates were incubated at 37 C for 16 hours. 1 uL of LiveBLAzer detection mixture was added to each well and the plates were incubated at room temperature in the dark for 2 h.
# % is set by controls: 0 for no effect and ±100 for the full control effect; potency is the fitted concentration of half-maximal effect.
SMILES,activation,Potency
CCCC(C)CO (stereo not given),inactive: -3.12%,
CC1(C)O[C@@H]2[C@@H](CO[C@@]3(COS(N)(=O)=O)OC(C)(C)O[C@@H]23)O1,,inconclusive: 51.3 µM [activator]
Cc1ccc2c(c1)C(=O)c1ccccc1C2=O,inactive: -0.928%,
CN(C)CCCN1c2ccccc2Sc2ccc(Cl)cc21,inconclusive: 9.37%,
c1cnc(N2CCN(Cc3ccc4c(c3)OCO4)CC2)nc1,,"inconclusive: 1.99 µM [rising, partial curve]"
CCCC(C)CC (stereo not given),inconclusive: 22.9%,
CCOc1ccccc1OCC1CNCCO1 (stereo not given),inconclusive: 23.4% [at 30.3 µM],
C=CC(=O)OCC1CC2CC1C1CCC(COC(=O)C=C)C21 (stereo not given),inconclusive: -9.96%,
Cc1ccccc1C(=O)N1CC/C(=N\OS(=O)(=O)O)c2ccc(Cl)cc21,inactive: 8% [at 30.3 µM],
Cc1c(N(C)CS(=O)(=O)O)c(=O)n(-c2ccccc2)n1C,,"inconclusive: 17.8 µM [fluorescent, partial curve]"
C[N+](C)(C)CCOC(N)=O,,"inconclusive: 19.9 µM [rising, partial curve, poor fit]"
CC1=Nc2ccc3ccccc3c2C1(C)C,,"inconclusive: 40.8 µM [rising, partial curve]"
COC(=O)[C@H](Cc1ccccc1)NC(=O)[C@@H](N)CC(=O)O (H-Asp-Phe-OMe),inconclusive: 20.1%,
O=C(O)c1ccc2cc(O)ccc2c1,inactive: 1.23%,
CC(C)(C)c1ccc(C(=O)CCCCl)cc1,inactive: -1.13% [at 30.3 µM],
Nc1ccc(NC(=O)c2ccc(N)cc2)cc1,inactive: 0.344%,
COC(=O)c1ccc(C)cc1,,inconclusive: 7.45 µM [activator]
CC(=O)/C(C)=C/C1C(C)=CCCC1(C)C (stereo not given),,"inconclusive: 18.2 µM [rising, single point]"
c1cc2ccc3ccc4ccc5cccc6c(c1)c2c3c4c56,,"inconclusive: 1.15 µM [activator, partial curve]"
CCCOc1ccc2c(c1)CC[C@@H]1[C@@H]2CC[C@]2(C)C(OC)CC[C@@H]12 (stereo not given in full),,"inconclusive: 22.3 µM [fluorescent, single point]"

# One compound at a time, from the list above.
# c1cnc(N2CCN(Cc3ccc4c(c3)OCO4)CC2)nc1 is listed with Potency: inconclusive: 1.99 µM [rising, partial curve]
# O=C(O)c1ccc2cc(O)ccc2c1 is listed with activation: inactive: 1.23%
# COC(=O)c1ccc(C)cc1 is listed with Potency: inconclusive: 7.45 µM [activator]

# More structures

SMILES,activation,Potency
Nc1nc2ccc(OC(F)(F)F)cc2s1,,"inconclusive: 2.23 µM [falling, partial curve]"
CCOC(=O)/C=C/C(=O)O,inactive: 0.377%,
CCNC(=O)/C=C/c1cccc(Br)c1,inconclusive: 2.24% [at 30.3 µM],
CCOC(=O)CC#N,inactive: 0.503%,
CSC(=O)c1cccc2nnsc12,,"inconclusive: 9.13 µM [fluorescent, full curve]"
Oc1c(Cl)cc(Cl)cc1Sc1cc(Cl)cc(Cl)c1O,,"inconclusive: 51.5 µM [falling, partial curve, poor fit]"
COc1cccc2c1C(=O)c1c(O)c3c(c(O)c1C2=O)C[C@@](O)(C(=O)CO)C[C@@H]3O[C@H]1C[C@H](N)[C@H](O)[C@H](C)O1,inconclusive: -16.9% [at 30.3 µM],
CC(C)C(C)(C)C(C)(C)C(C)(C)S,,"inconclusive: 51.3 µM [fluorescent, single point]"
CC(COc1ccccc1)NN (stereo not given),,"inconclusive: 22.3 µM [fluorescent, single point]"
CC(C)OC(=O)c1cc2c(OCC(O)CNC(C)(C)C)cccc2[nH]1 (stereo not given),inactive: -6.98% [at 30.3 µM],
CN(C[C@@H](CC[N+]12CCC(C3CCCCC3)(CC1)CC2)c1ccc(Cl)c(Cl)c1)C(=O)c1cc(C(F)(F)F)cc(C(F)(F)F)c1,inactive: -14.8%,
O=[N+]([O-])c1cc[n+]([O-])cc1,inconclusive: -6.68%,
N=C1N=C(N)c2cc3ccccc3cc21,,"inconclusive: 36.3 µM [activator, partial curve]"
CC(=O)OCC(=O)[C@@]1(O)[C@H](OC(C)=O)C[C@H]2[C@@H]3CCC4=CC(=O)C=C[C@]4(C)[C@@]3(F)[C@@H](O)C[C@@]21C,,inconclusive: 11.2 µM [fluorescent]
CCCCCCCCCCCCN(CCCCCCCCCCCC)CCCCCCCCCCCC,,"inconclusive: 41.5 µM [fluorescent, single point]"
CCOC(=O)COc1ccc2c(C)c(CCN(CC)CC)c(=O)oc2c1Cl,,"inconclusive: 17.8 µM [fluorescent, partial curve]"
O=[N+]([O-])c1ccc(O)cc1C(F)(F)F,,"inconclusive: 18.2 µM [falling, partial curve]"
Fc1ccc([C@@H]2CCNC[C@H]2COc2ccc3c(c2)OCO3)cc1,inactive: 2.87% [at 30.3 µM],
COc1cc(/C=C/C(=O)CC(=O)/C=C/c2ccc(O)c(OC)c2)ccc1O,,"inconclusive: 20.6 µM [fluorescent, partial curve]"
Cc1cc2c(OCC(CNC(C)(C)C)OC(=O)c3ccccc3)cccc2[nH]1 (stereo not given),inactive: -3.13% [at 30.3 µM],
